At least one compound was matched to its structure with a doubt left.
Tests used:
[1] = molecular target: T1, TRα (Rattus norvegicus, UniProt P63059); test: CAT reporter assay in CV-1 cells transfected with TRα (TRE-tk-CAT, TRE2-tk-CAT); format: cell-based; conditions: RA 10^−10 to 10^−5 M; T3 10^−7 M
T1 construct: expressed in transfected cells; host or cells: CV-1 cells, transient transfection
T1 sequence (P63059 1-410 isoform P63059-2): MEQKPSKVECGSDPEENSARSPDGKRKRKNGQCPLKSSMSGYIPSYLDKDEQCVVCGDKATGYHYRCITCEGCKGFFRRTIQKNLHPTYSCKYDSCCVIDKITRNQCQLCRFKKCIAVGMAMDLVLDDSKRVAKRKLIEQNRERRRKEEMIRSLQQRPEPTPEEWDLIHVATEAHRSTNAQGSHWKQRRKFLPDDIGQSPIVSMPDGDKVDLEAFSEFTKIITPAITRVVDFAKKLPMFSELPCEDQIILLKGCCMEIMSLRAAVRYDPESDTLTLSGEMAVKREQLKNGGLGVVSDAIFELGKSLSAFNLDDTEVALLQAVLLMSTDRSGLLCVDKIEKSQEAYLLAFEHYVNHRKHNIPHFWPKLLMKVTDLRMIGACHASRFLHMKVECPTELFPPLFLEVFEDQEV

[2] = tested on: RXRα-TRα and RXRα-RARα complexes; test: Gel retardation assay of RXRα interaction with TRα or RARα on palindromic TRE; format: binding

Structure (SMILES): CC1=C(/C=C/C(C)=C/C=C/C(C)=C/C(=O)O)C(C)(C)CCC1 [RA, retinoic acid]
- effect of RA on CAT activity when TRα transfected alone [1]: no effect
- influence of hormone on formation of slow migrating complexes [2]: no clear influence

From US7098310B1, “Heterodimers of retinoid X receptors (RXRS) and other steroid hormone receptors” (Ligand Pharmaceuticals, priority 1991, dated 2006)
